Results published in paper PMC8254121.
Results are given in words; binding and its absence hold for the method and conditions named. Binding seen in cells or lysates may run through a third protein. A result given as binding can be weak or reduced; the word gives no strength.

By UniProt entry, the sequences of proteins in these tests, tags left out. Where a name states a change or a piece, a line headed by the entry shows the natural chain unless it says otherwise. Residues count along the entry.
UniProt P56817: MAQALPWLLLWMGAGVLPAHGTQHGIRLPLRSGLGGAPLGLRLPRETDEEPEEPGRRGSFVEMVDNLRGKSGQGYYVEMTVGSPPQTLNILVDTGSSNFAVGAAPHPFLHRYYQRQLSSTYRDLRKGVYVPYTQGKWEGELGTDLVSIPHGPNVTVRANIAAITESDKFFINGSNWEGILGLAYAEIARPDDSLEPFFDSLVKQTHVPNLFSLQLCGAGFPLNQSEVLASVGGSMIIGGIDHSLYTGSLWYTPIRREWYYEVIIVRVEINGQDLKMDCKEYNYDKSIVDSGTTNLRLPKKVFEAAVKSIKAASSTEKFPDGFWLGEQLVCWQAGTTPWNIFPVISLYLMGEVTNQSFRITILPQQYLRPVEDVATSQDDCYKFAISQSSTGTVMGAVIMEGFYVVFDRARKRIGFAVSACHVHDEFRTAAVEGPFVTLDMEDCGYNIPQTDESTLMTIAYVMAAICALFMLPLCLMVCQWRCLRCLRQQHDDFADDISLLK
UniProt P06213, residues 28-1382: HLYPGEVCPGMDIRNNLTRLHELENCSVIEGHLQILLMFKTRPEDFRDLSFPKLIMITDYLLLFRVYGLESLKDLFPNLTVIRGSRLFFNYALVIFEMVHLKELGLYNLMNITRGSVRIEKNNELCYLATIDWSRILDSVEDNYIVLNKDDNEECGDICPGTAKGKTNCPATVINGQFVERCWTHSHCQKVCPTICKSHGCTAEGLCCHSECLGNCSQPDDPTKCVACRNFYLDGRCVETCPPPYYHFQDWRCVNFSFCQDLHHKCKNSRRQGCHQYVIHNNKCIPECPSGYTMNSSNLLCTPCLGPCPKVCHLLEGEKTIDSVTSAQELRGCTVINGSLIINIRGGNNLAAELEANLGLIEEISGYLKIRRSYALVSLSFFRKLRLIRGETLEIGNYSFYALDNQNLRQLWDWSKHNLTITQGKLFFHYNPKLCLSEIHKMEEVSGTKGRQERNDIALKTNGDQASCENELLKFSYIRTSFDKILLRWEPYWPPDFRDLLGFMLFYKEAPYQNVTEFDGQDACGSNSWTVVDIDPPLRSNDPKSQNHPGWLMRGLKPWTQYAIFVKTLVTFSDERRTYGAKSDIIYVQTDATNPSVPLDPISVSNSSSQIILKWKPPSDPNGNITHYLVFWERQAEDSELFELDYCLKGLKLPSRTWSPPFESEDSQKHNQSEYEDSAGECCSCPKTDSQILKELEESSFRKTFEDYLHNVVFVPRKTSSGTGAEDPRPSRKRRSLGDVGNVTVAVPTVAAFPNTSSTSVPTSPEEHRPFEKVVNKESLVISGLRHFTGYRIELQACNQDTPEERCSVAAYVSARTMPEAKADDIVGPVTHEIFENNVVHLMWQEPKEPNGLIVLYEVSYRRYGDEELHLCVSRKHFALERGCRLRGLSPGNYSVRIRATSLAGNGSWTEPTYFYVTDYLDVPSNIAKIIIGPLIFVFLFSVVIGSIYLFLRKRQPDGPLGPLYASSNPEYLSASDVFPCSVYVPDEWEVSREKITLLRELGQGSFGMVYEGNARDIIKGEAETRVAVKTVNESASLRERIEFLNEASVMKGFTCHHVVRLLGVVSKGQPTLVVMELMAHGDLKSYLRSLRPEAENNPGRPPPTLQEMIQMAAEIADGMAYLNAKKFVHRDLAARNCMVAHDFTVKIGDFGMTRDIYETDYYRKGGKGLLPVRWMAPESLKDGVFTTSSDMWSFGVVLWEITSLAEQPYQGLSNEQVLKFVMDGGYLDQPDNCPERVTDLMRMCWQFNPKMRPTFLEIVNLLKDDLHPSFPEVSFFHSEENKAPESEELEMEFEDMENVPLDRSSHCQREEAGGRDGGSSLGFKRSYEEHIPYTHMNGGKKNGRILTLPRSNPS

Tests used:
[1] = biological target: HA-tagged BACE1 (β-secretase 1) (UniProt P56817); assay: co-IP; immunoprecipitation with anti-tag antibodies (anti-HA or anti-FLAG) from lysates of transfected HEK293 cells; immunoblot with anti-HA, anti-BACE1 prodomain, anti-FLAG or anti-IR antibodies
[2] = biological target: FLAG-tagged insulin receptor (UniProt P06213); assay: as above

Row | Substance | binding [1] | binding [2]
1 | insulin receptor (IR), no tag named (from UniProt P06213 28-1382) | binds | –
2 | HA-tagged BACE1 (β-secretase 1) (from UniProt P56817) (enzyme) | – | binds
